Results deposited as PubChem BioAssay AID493246 (Drosophila RNAi Screening Center, 2011)

- Assay: 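Genes fly cells need to grow and stay alive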 (primary screen)
- Cells: Drosophila Kc and S2R+ cells
- Knock-down reagent: long dsRNA against Drosophila genes
- Measurement: 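Cell number per well after knock-down, printed as raw plate values; calls were based on per-plate z-scores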
- Reading the numbers: Kc cell number and S2R+ cell number: higher = more cells remaining
- Hit rule: 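Active when the per-plate z-score of cell number is 3 or more in the direction of fewer cells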
The deposit covers about 21,000 reagents; shown is a random part of those that have a named target and a result. In the full data, 429 (2%) are marked active. 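Values are raw and not normalised between plates; calls rest on per-plate z-scores that were not deposited.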 The numbers tell different reagents against one gene apart. The record does not give: the amount of reagent, the time to read-out.

gene	dsRNA no.	Kc cell number, rep 1	Kc cell number, rep 2	S2R+ cell number, rep 1	S2R+ cell number, rep 2	Outcome
Tab2 (TAK1-associated binding protein 2)	1	1.56e6	1.58e6	1.15e6	1.19e6	inactive
ATPsyngamma (ATP synthase, gamma subunit)	1	1.12e6	1.18e6	6.58e5	7.60e5	active
ari-2 (ariadne 2)	1	1.63e6	1.64e6	1.28e6	8.06e5	inactive
snky (sneaky)	1	1.33e6	1.38e6	1.25e6	1.34e6	inactive
CG30099	1	1.54e6	1.59e6	1.09e6	1.25e6	inactive
Daxx (Daxx-like protein)	1	1.19e6	1.46e6	2.38e5	1.45e5	inactive
Acox3 (Acyl-CoA oxidase 3)	1	1.44e6	1.30e6	1.14e6	1.28e6	inactive
Dscam3 (Down syndrome cell adhesion molecule 3)	1	1.25e6	1.27e6	1.22e6	1.40e6	inactive
Dscam3 (Down syndrome cell adhesion molecule 3)	2	1.24e6	1.33e6	1.24e6	1.41e6	inactive
rtv (retroactive)	1	5.14e5		8.12e5		inactive
Karybeta3 (Karyopherin beta 3)	1	1.46e6	1.37e6	1.24e6	1.37e6	inactive
lncRNA:CR32661 (long non-coding RNA:CR32661)	1	1.56e6	1.54e6	1.10e6	1.20e6	inactive
CG15649	1	1.68e6	1.76e6	1.33e6	5.13e5	inactive
Tpr2 (Tetratricopeptide repeat protein 2)	1	1.58e6	1.63e6	1.43e6	1.48e6	inactive
Ak1 (Adenylate kinase 1)	1	1.34e6	1.35e6	1.40e6	1.48e6	inactive
px (plexus)	1	1.02e6	1.12e6	6.24e5	7.13e5	inactive
Ubc6 (Ubiquitin conjugating enzyme 6)	1	1.72e6	1.73e6	1.16e6	1.24e6	inactive
Cks85A (Cyclin-dependent kinase subunit 85A)	1	1.67e6	1.89e6	1.23e6	1.30e6	inactive
CG12133	1	1.51e6	1.59e6	1.28e6	1.45e6	inactive
CG15468	1	1.53e6	1.60e6	1.11e6	1.20e6	inactive
CG34428	1	1.22e6	1.32e6	1.31e6	1.45e6	inactive
fidipidine	1	1.50e6	1.56e6	1.15e6	1.27e6	inactive
Mitofilin	1	1.52e6	1.64e6	1.03e6	1.08e6	inactive
CG42399	1	1.57e6	1.60e6	1.18e6	1.32e6	inactive
CG42399	2	1.54e6	1.57e6	1.17e6	1.30e6	inactive
Hsp27 (Heat shock protein 27)	1	1.35e6	1.33e6	1.32e6	1.21e6	inactive
nkt (noktochor)	1	1.29e6	1.30e6	1.30e6	1.36e6	inactive
CG5863	1	1.34e6	1.48e6	1.02e6	1.18e6	inactive
CG17600	1	1.50e6	1.55e6	1.08e6	1.15e6	inactive
CG17600	2	1.52e6	1.53e6	1.04e6	1.18e6	inactive
Clk (Clock)	1	1.30e6	1.47e6	1.12e6	1.12e6	inactive
CG9577	1	1.51e6	1.53e6	1.06e6	1.18e6	inactive
Rad17	1	1.33e6	1.42e6	1.17e6	1.24e6	inactive
CG13407	1	1.37e6	1.52e6	9.89e5	1.02e6	inactive
CG31886	1	1.33e6	1.37e6	1.02e6	1.06e6	inactive
CG12672	1	1.34e6	1.28e6	9.93e5	1.15e6	inactive
CG9641	1	1.38e6	1.38e6	1.02e6	1.15e6	inactive
CG43996	1	1.53e6	1.55e6	1.05e6	1.18e6	inactive
CG43996	2	1.46e6	1.49e6	1.11e6	1.21e6	inactive
CR11700 (retired record)	1	1.05e5	1.12e5	2.37e5	3.19e5	active
Dgp-1	1	1.53e6	1.54e6	1.11e6	1.22e6	inactive
CG31468	1	1.23e6	1.47e6	1.12e6	1.13e6	inactive
GstZ1 (Glutathione S transferase Z1)	1	1.48e6	1.52e6	1.22e6	1.31e6	inactive
Debcl (Death executioner Bcl-2)	1	1.39e6	1.44e6	1.18e6	1.23e6	inactive
deltaCOP (Coat Protein (coatomer) delta)	1	6.07e5		6.21e5		inactive
Ir60e (Ionotropic receptor 60e)	1	1.48e6	1.60e6	1.34e6	1.49e6	inactive
CG6923	1	1.58e6	1.62e6	1.20e6	1.33e6	inactive
CG2162	1	8.54e5	9.31e5	9.40e5	4.39e5	active
GlyT (Glycine transporter)	1	1.63e6	1.79e6	1.24e6	1.42e6	inactive
Snoo (Sno oncogene)	1	1.45e6	1.51e6	1.03e6	1.10e6	inactive
Snoo (Sno oncogene)	2	1.28e6	1.35e6	6.41e5	7.71e5	inactive
Snoo (Sno oncogene)	3	1.56e6	1.63e6	1.21e6	1.30e6	inactive
Mal-A3 (Maltase A3)	1	1.47e6	1.55e6	1.28e6	1.42e6	inactive
CG4835	1	1.46e6	1.37e6	8.66e5	9.29e5	inactive
Rs1	1	1.35e6	1.45e6	9.53e5	9.65e5	inactive
Delta	1	1.39e6	1.43e6	1.00e6	1.09e6	inactive
Sgs5bis	1	1.40e6	1.64e6	1.09e6	9.94e5	inactive
CG5565	1	1.61e6	1.58e6	1.05e6	1.23e6	inactive
CG5614	1	1.27e6	1.36e6	1.01e6	1.10e6	inactive

Laid out differently: results already given
| gene | dsRNA no. | Kc cell number, rep 1 | Kc cell number, rep 2 | S2R+ cell number, rep 1 | S2R+ cell number, rep 2 | Outcome |
| --- | --- | --- | --- | --- | --- | --- |
| Cks85A (Cyclin-dependent kinase subunit 85A) | 1 | 1.67e6 | 1.89e6 | 1.23e6 | 1.30e6 | inactive |
| CG12133 | 1 | 1.51e6 | 1.59e6 | 1.28e6 | 1.45e6 | inactive |
| CG15468 | 1 | 1.53e6 | 1.60e6 | 1.11e6 | 1.20e6 | inactive |
